PubChem BioAssay AID1259308 – NCATS | 2017
This is an unselected part of about 59,000 deposited reagents. Of all reagents, about 1,510 (2.6%) were called active. 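Calls use total luciferase alone and ignore viability, so some active siRNAs may act by altering cell number.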 The numbers tell different reagents against one gene apart.

- Assay: 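Genes whose loss raises luciferase production in HEK293 cells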 (primary screen)
- Cells: human HEK293 embryonic kidney cells stably expressing firefly luciferase (HEK-CMV-Luc2-Hygro)
- Knock-down reagent: single siRNA against human genes, 0.8 pmol siRNA per well
- Timing: 72 h
- Measurement: 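Luciferase light (ONE-Glo) measured on one replicate plate set and viability (CellTiter-Glo) on the other, scaled to a negative control siRNA, with robust z-scores and luciferase per cell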
- Direction: total luciferase, z-score and total luciferase, % of control: higher = more reporter protein produced; luciferase per cell, z-score: higher = more reporter output per viable cell; viable cells, % of control: higher = more viable cells
- Rule for the call: 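An siRNA counts as active if its total luciferase robust z-score exceeds 3; genes with two or more such siRNAs out of three were retested with fresh siRNAs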
- Calls: active = raised luciferase; inactive = no rise

gene | reagent no. | total luciferase, z-score | total luciferase, % of control | luciferase per cell, z-score | viable cells, % of control | call
PLCG1 (phospholipase C gamma 1) | 1 | -0.155 | 78.8 | -0.174 | 92.2 | inactive
PLCG1 (phospholipase C gamma 1) | 2 | -0.675 | 68.5 | -0.865 | 96.1 | inactive
PLCG1 (phospholipase C gamma 1) | 3 | -0.116 | 79.6 | -0.33 | 97 | inactive
TWF2 (twinfilin actin binding protein 2) | 1 | -0.396 | 74 | -0.174 | 86.6 | inactive
TWF2 (twinfilin actin binding protein 2) | 2 | -1.36 | 54.8 | -1.6 | 93.5 | inactive
TWF2 (twinfilin actin binding protein 2) | 3 | -1.37 | 54.6 | -1.03 | 80.2 | inactive
PIK3C2A | 1 | -0.929 | 63.4 | -0.521 | 81.3 | inactive
PIK3C2A | 2 | -0.431 | 73.3 | -0.349 | 89.8 | inactive
PIK3C2A | 3 | -0.555 | 70.9 | -1.28 | 111 | inactive
WRAP73 (WD repeat containing, antisense to TP73) | 1 | -0.0239 | 81.4 | -0.673 | 109 | inactive
WRAP73 (WD repeat containing, antisense to TP73) | 2 | 0.628 | 94.4 | 0.564 | 90.9 | inactive
WRAP73 (WD repeat containing, antisense to TP73) | 3 | -0.929 | 63.4 | -1.21 | 97.4 | inactive

Next part; the last 3 above are carried over.
gene | reagent no. | total luciferase, z-score | total luciferase, % of control | luciferase per cell, z-score | viable cells, % of control | call
WRAP73 (WD repeat containing, antisense to TP73) | 1 | -0.0239 | 81.4 | -0.673 | 109 | inactive
WRAP73 (WD repeat containing, antisense to TP73) | 2 | 0.628 | 94.4 | 0.564 | 90.9 | inactive
WRAP73 (WD repeat containing, antisense to TP73) | 3 | -0.929 | 63.4 | -1.21 | 97.4 | inactive
CCDC88C (coiled-coil and HOOK domain protein 88C) | 1 | -0.871 | 64.6 | -0.627 | 85.1 | inactive
CCDC88C (coiled-coil and HOOK domain protein 88C) | 2 | -1.07 | 60.7 | -1.08 | 90.1 | inactive
CCDC88C (coiled-coil and HOOK domain protein 88C) | 3 | 0.0568 | 83 | 0.779 | 75.6 | inactive
CAMK2A (calcium/calmodulin dependent protein kinase II alpha) | 1 | -1.42 | 53.6 | -0.407 | 66.7 | inactive
CAMK2A (calcium/calmodulin dependent protein kinase II alpha) | 2 | 0.515 | 92.1 | -0.242 | 110 | inactive
CAMK2A (calcium/calmodulin dependent protein kinase II alpha) | 3 | -0.213 | 77.6 | 0.0668 | 85.3 | inactive
CTNNB1 (catenin beta 1) | 1 | -0.398 | 74 | -0.459 | 93.3 | inactive
CTNNB1 (catenin beta 1) | 2 | 0.613 | 94.1 | 0.346 | 96 | inactive
CTNNB1 (catenin beta 1) | 3 | -0.444 | 73.1 | -0.691 | 97.9 | inactive
TAX1BP1 (Tax1 binding protein 1) | 1 | 2.49 | 131 | 2.21 | 82.1 | inactive
TAX1BP1 (Tax1 binding protein 1) | 2 | 1.55 | 113 | 2.14 | 71.7 | inactive
TAX1BP1 (Tax1 binding protein 1) | 3 | -0.345 | 75 | -0.49 | 95.4 | inactive
